Test results: US5506213A, “Adminstration of 2'-halo-2'-deoxy adenosine to treat inflammatory bowel disease” (priority 1994, dated 1996)
At least one structure is not confirmed: it was looked up by name or label, or the drawing left a doubt.

Legend:
[1] = test system: HIV; experiment: Inhibition of synthesis of p24 (gag) antigen of HIV in GEM cells, 3-day assay; assay type: cell-based
[2] = test system: HIV; experiment: Inhibition of p24 (gag) production of HIV from MDM cells, 3-day assay; assay type: cell-based; conditions: 0.1-100 μM

Nc1ccn([C@H]2CC[C@@H](CO)O2)c(=O)n1 [ddC, dideoxycytidine]
inhibition of synthesis of p24 (gag) antigen of HIV (rank order) [1]: most inhibitory effect at the lowest concentration
inhibition of p24 (gag) production [2]: none of those compounds provided any inhibition
